PubChem BioAssay AID652243, Drosophila RNAi Screening Center – 2013
In all, the deposit lists about 24,000 reagents; this is a random part of those with a known target gene and a result. Of all reagents, 246 (1%) got an active call. 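Plates not normalised; calls are printed but the firefly/Renilla ratio behind them is not deposited; fold cut for lowering reported inconsistently.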 Raw values are not corrected between plates. The numbers tell different reagents against one gene apart. Names joined by + are all predicted targets of the reagent. The record does not give: the amount of reagent.

Test: 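Fly genes required for human androgen receptor driven transcription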 (primary screen)
Cells: Drosophila S2R+ cells
Reagents: long dsRNA against Drosophila genes
Timing: 72 h (48 h, then 24 h hormone)
Conditions: synthetic androgen R1881 at 10 nM for 24 h
Read-out: 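Firefly light from an androgen-responsive reporter and Renilla control light per well, raw and unnormalised, for each of two replicates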
Reading the numbers: firefly reporter light: higher = more light from androgen-responsive reporter; Renilla control light: higher = more constitutive control signal (cell number, transfection)
Active means: 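Hit when the log firefly-to-Renilla ratio dropped or increased by a fixed fold versus the mean of GFP or LacZ controls across duplicate plates; lowering cut given as 1.5 and as 3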
Calls: active = hit: reporter lowered or raised; inactive = no hit

| gene | reagent no. | firefly reporter light, replicate 1 | firefly reporter light, replicate 2 | Renilla control light, replicate 1 | Renilla control light, replicate 2 | Call |
| --- | --- | --- | --- | --- | --- | --- |
| cmet | 1 | 1.55e5 | 1.96e5 | 1.36e6 | 1.66e6 | inactive |
| CG10375 | 1 | 2.23e5 | 5.98e5 | 7.40e5 | 1.41e6 | inactive |
| MTPAP | 1 | 2.04e5 | 1.69e5 | 2.69e6 | 2.42e6 | inactive |
| MTPAP | 2 | 1.07e6 | 6.94e5 | 1.37e6 | 8.06e5 | inactive |
| CG17721 | 1 | 2.03e5 | 2.61e5 | 3.22e6 | 2.71e6 | inactive |
| CG12316 | 1 | 6.84e5 | 8.42e5 | 1.02e6 | 1.37e6 | inactive |
| CG12316 | 2 | 3.96e5 | 2.45e5 | 4.53e5 | 3.92e5 | inactive |
| ATPsynB | 1 | 7.41e5 | 1.11e6 | 1.62e6 | 1.82e6 | inactive |
| CG31323 | 1 | 1.35e5 | 1.92e5 | 2.61e6 | 2.63e6 | inactive |
| CG11626 | 1 | 2.42e5 | 3.67e5 | 3.06e6 | 3.59e6 | inactive |
| CG31036 | 1 | 1.23e5 | 1.47e5 | 2.32e6 | 2.65e6 | inactive |
| CG31036 | 2 | 1.94e5 | 1.29e5 | 2.05e6 | 2.39e6 | inactive |
| Rpt3R | 1 | 1.10e5 | 1.49e5 | 2.18e6 | 2.49e6 | inactive |
| Rpt3R | 2 | 6.43e5 | 6.98e5 | 7.75e5 | 1.20e6 | inactive |
| chb | 1 | 68049 | 71761 | 2.30e5 | 2.06e5 | inactive |
| chb | 2 | 4.09e5 | 3.13e5 | 1.38e6 | 1.36e6 | inactive |
| CG15577 | 1 | 3.68e5 | 3.19e5 | 3.81e6 | 3.69e6 | inactive |
| CG16743 | 1 | 1.01e6 | 1.14e6 | 8.71e5 | 8.77e5 | inactive |
| CaBP1 | 1 | 8.46e5 | 1.01e6 | 1.20e6 | 1.72e6 | inactive |
| CG34222 | 1 | 6.13e5 | 5.45e5 | 1.98e6 | 1.88e6 | inactive |
| CG30344 | 1 | 4.81e5 | 7.50e5 | 1.75e6 | 2.68e6 | inactive |
| CG30344 | 2 | 3.77e5 | 3.01e5 | 6.67e5 | 5.96e5 | inactive |
| CG4617 | 1 | 84011 | 54475 | 8.02e5 | 4.93e5 | inactive |
| CG4617 | 2 | 9.64e5 | 1.07e6 | 7.03e5 | 8.31e5 | inactive |
| CG15747 | 1 | 48192 | 46257 | 5.00e5 | 4.80e5 | inactive |
| CG15747 | 2 | 7.26e5 | 6.34e5 | 1.83e6 | 1.05e6 | inactive |
| sage | 1 | 3.99e5 | 3.74e5 | 1.88e6 | 2.44e6 | inactive |
| sage | 2 | 2.60e5 | 7.07e5 | 1.11e6 | 1.56e6 | inactive |
| CG11380 | 1 | 5.93e5 | 6.34e5 | 1.50e6 | 1.68e6 | inactive |
| CG11380 | 2 | 1.05e6 | 8.67e5 | 1.47e6 | 1.55e6 | inactive |
| CG31821 | 1 | 8.23e5 | 6.09e5 | 2.17e6 | 1.58e6 | inactive |
| CG13891 | 1 | 86111 | 1.12e5 | 1.69e6 | 1.73e6 | inactive |
| CG13891 | 2 | 8.46e5 | 9.36e5 | 1.26e6 | 1.54e6 | inactive |
| ksh | 1 | 78654 | 46349 | 1.51e5 | 1.08e5 | inactive |
| ksh | 2 | 3.29e5 | 4.18e5 | 1.78e6 | 1.54e6 | inactive |
| CG9853 | 1 | 16473 | 22226 | 2.24e5 | 2.13e5 | inactive |
| CG9853 | 2 | 5.36e5 | 7.36e5 | 8.32e5 | 1.11e6 | inactive |
| CG9853 | 3 | 4.81e5 | 7.27e5 | 7.10e5 | 1.14e6 | inactive |
| l(2)37Bb | 1 | 3.80e5 | 4.33e5 | 2.66e6 | 2.46e6 | inactive |
| CG7342 | 1 | 61018 | 86413 | 8.17e5 | 1.02e6 | inactive |
| Ref2 | 1 | 1.24e5 | 1.74e5 | 1.20e6 | 1.62e6 | inactive |
| CG10663 | 1 | 2.54e5 | 1.70e5 | 2.28e6 | 9.58e5 | inactive |
| S2P | 1 | 2.53e5 | 1.93e5 | 8.84e5 | 1.25e6 | inactive |
| S2P | 2 | 9.41e5 | 6.24e5 | 2.79e6 | 1.47e6 | inactive |
| CG14662 + asRNA:CR43478 | 1 | 48639 | 1.04e5 | 1.60e6 | 1.27e6 | inactive |
| Gnptab | 1 | 4.20e5 | 2.61e5 | 1.88e6 | 1.50e6 | inactive |
| CG7950 + Rpp14a | 1 | 78293 | 65592 | 9.26e5 | 6.66e5 | inactive |
| CG7950 + Rpp14a | 2 | 5.20e5 | 4.44e5 | 1.54e6 | 1.39e6 | inactive |
| CG33723 | 1 | 1.30e6 | 9.21e5 | 2.43e6 | 2.21e6 | inactive |
| CG13036 (retired record) | 1 | 2.86e5 | 3.13e5 | 3.10e6 | 2.44e6 | inactive |
| CG31704 | 1 | 1.02e6 | 8.91e5 | 2.27e6 | 2.70e6 | inactive |
| Rpn11 | 1 | 66809 | 50014 | 4.99e5 | 5.14e5 | inactive |
| Tengl2 | 1 | 7.04e5 | 7.12e5 | 1.76e6 | 1.42e6 | inactive |
| Tengl2 | 2 | 5.79e5 | 5.19e5 | 1.46e6 | 1.36e6 | inactive |
| NAT1 | 1 | 1.18e6 | 1.20e6 | 1.08e6 | 6.68e5 | inactive |
| NAT1 | 2 | 9.38e5 | 6.51e5 | 5.88e5 | 3.47e5 | inactive |
| Acadvl | 1 | 3.81e5 | 4.30e5 | 4.79e5 | 4.06e5 | inactive |
| Acadvl | 2 | 1.88e5 | 1.23e5 | 3.72e5 | 3.88e5 | inactive |
| CG34324 | 1 | 8.13e5 | 9.94e5 | 1.32e6 | 1.67e6 | inactive |
| Drep4 | 1 | 2.72e5 | 3.41e5 | 1.76e6 | 2.18e6 | inactive |
| CG6805 | 1 | 2.79e5 | 3.89e5 | 3.09e5 | 2.80e5 | inactive |
| CG6805 | 2 | 3.71e5 | 3.85e5 | 1.18e6 | 1.18e6 | inactive |
| l(2)34Fd | 1 | 7.45e5 | 9.21e5 | 1.44e6 | 1.89e6 | inactive |
| CG10413 | 1 | 8.85e5 | 1.26e6 | 1.19e6 | 1.54e6 | inactive |
| His2B:CG33870 + His2B:CG33868 + His2B:CG33882 + 21 more | 1 | 5.78e5 | 3.59e5 | 2.16e5 | 1.75e5 | inactive |
| Sf3a2 | 1 | 1.36e6 | 8.83e5 | 1.55e6 | 1.70e6 | inactive |
| Fatp2 | 1 | 7.14e5 | 7.18e5 | 2.19e6 | 1.92e6 | inactive |
| Fatp2 | 2 | 3.76e5 | 4.19e5 | 2.67e6 | 1.89e6 | inactive |
| Fatp2 | 3 | 3.15e5 | 3.29e5 | 2.20e6 | 1.24e6 | inactive |
| Dim1 | 1 | 1.17e5 | 98667 | 8.43e5 | 8.33e5 | inactive |
| nAChRalpha7 | 1 | 3.80e5 | 2.05e5 | 6.48e5 | 4.47e5 | inactive |
| nAChRalpha7 | 2 | 2.68e5 | 1.46e5 | 8.11e5 | 4.58e5 | inactive |
| bru2 | 1 | 1.99e5 | 3.05e5 | 5.79e5 | 3.65e5 | inactive |
| bru2 | 2 | 1.11e5 | 2.06e5 | 2.47e5 | 1.92e5 | inactive |
| bru2 | 3 | 3.51e5 | 5.40e5 | 4.91e5 | 4.12e5 | inactive |
| bru2 | 4 | 4.89e5 | 4.29e5 | 7.13e5 | 7.02e5 | inactive |

6 entries from above, limited to “firefly reporter light, replicate 2”.
CG13891 #2: 9.36e5
ksh #1: 46349
ksh #2: 4.18e5
CG9853 #1: 22226
CG9853 #2: 7.36e5
CG9853 #3: 7.27e5
